According to doi:10.1101/491779:
Results are given in words; binding and its absence hold for the method and conditions named. Binding seen in cells or lysates may run through a third protein. Some results given as binding are weak or reduced against the parent protein; the word gives no strength. For some assays here: Where a sequence is shown, tags or fusion partners need not be part of it.

Protein sequences, listed by entry. Tags and fused reporters are not part of them. Lines headed by an entry give the natural chain unless they say otherwise; changes in a name come on top.
UniProt Q13263, whole entry: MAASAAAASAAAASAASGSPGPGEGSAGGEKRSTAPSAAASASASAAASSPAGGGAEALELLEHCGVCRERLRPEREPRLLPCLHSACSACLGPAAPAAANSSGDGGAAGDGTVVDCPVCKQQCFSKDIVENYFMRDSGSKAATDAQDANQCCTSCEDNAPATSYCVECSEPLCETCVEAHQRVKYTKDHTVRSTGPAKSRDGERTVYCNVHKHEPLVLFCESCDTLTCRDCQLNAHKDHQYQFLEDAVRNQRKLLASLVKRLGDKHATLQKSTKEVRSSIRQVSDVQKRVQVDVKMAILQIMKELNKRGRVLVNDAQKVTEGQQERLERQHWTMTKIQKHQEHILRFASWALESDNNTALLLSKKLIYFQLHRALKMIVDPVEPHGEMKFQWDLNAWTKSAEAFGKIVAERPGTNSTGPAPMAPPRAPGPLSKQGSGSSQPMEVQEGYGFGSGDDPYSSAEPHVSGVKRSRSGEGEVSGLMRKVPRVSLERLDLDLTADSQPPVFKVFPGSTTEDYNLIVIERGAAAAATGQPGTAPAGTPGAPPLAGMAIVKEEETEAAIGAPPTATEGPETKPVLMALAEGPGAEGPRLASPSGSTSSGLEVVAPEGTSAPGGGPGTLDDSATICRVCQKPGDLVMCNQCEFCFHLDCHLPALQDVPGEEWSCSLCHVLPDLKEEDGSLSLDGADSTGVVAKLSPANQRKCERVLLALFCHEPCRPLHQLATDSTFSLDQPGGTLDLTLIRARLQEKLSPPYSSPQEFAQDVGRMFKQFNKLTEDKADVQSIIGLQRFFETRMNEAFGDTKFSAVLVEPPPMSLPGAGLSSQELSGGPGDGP
UniProt Q13185, whole entry: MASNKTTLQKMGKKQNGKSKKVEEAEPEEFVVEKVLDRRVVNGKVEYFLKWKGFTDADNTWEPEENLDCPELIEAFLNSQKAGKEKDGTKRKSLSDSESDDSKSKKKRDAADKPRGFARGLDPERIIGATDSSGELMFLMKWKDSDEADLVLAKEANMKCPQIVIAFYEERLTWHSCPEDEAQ

T1: FLAG-HA-tagged full length C11orf46 (human) (UniProt Q8N8R7)
T1 sequence: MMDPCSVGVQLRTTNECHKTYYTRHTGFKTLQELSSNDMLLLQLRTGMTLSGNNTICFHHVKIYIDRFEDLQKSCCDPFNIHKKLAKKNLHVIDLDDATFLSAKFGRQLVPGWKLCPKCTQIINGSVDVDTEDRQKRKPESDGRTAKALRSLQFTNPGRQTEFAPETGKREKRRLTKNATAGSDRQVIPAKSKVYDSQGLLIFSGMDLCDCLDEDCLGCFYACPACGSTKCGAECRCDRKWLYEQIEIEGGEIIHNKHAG

T2: FLAG-C11orf46 R236H (human) (UniProt Q8N8R7)
T2 sequence: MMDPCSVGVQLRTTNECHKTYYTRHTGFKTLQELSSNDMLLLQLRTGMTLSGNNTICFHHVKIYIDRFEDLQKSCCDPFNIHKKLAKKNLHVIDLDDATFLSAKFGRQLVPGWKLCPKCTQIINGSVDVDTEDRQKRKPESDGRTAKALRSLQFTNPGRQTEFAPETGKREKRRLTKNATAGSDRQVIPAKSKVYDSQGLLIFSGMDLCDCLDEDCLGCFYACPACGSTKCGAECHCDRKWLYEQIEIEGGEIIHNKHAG

T3: C11orf46 (endogenous, HeLa) (human (endogenous in HeLa)) (UniProt Q8N8R7)
T3 sequence: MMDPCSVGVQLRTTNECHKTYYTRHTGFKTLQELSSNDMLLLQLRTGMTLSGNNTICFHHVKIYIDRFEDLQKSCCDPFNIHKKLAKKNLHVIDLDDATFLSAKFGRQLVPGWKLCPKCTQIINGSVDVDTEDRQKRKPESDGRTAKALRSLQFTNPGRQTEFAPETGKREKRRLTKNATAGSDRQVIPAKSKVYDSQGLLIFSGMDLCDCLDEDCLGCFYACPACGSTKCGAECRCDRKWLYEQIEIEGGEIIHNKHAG


Assays:
Experiment in all cases: co-IP
[1] = target: T1, FLAG-HA-tagged full length C11orf46 (human)
[2] = target: T2, FLAG-C11orf46 R236H (human)
[3] = target: T3, C11orf46 (endogenous, HeLa) (human (endogenous in HeLa))

Molecule | binding [1] | binding [2] | binding [3]
KAP1 (endogenous, HEK293) (from UniProt Q13263 1-835) | binds | binds | 
heterochromatin-associated protein 1 gamma (HP1γ) (endogenous, HeLa) (from UniProt Q13185 1-183) |  |  | binds

Continued, values first:

binding [1] | binding [2] | binding [3] | Molecule
binds |  |  | MCAF1 (endogenous, HEK293) (protein, UniProt Q6VMQ6 1-1270) MDSLEEPQKKVFKARKTMRVSDRQQLEAVYKVKEELLKTDVKLLNGNHENGDLDPTSPLENMDYIKDKEEVNGIEEICFDPEGSKAEWKETPCILSVNVKNKQDDDLNCEPLSPHNITPEPVSKLPAEPVSGDPAPGDLDAGDPASGVLASGDSTSGDPTSSEPSSSDAASGDATSGDAPSGDVSPGDATSGDATADDLSSGDPTSSDPIPGEPVPVEPISGDCAADDIASSEITSVDLASGAPASTDPASDDLASGDLSSSELASDDLATGELASDELTSESTFDRTFEPKSVPVCEPVPEIDNIEPSSNKDDDFLEKNGADEKLEQIQSKDSLDEKNKADNNIDANEETLETDDTTICSDRPPENEKKVEEDIITELALGEDAISSSMEIDQGEKNEDETSADLVETINENVIEDNKSENILENTDSMETDEIIPILEKLAPSEDELTCFSKTSLLPIDETNPDLEEKMESSFGSPSKQESSESLPKEAFLVLSDEEDISGEKDESEVISQNETCSPAEVESNEKDNKPEEEEQVIHEDDERPSEKNEFSRRKRSKSEDMDNVQSKRRRYMEEEYEAEFQVKITAKGDINQKLQKVIQWLLEEKLCALQCAVFDKTLAELKTRVEKIECNKRHKTVLTELQAKIARLTKRFEAAKEDLKKRHEHPPNPPVSPGKTVNDVNSNNNMSYRNAGTVRQMLESKRNVSESAPPSFQTPVNTVSSTNLVTPPAVVSSQPKLQTPVTSGSLTATSVLPAPNTATVVATTQVPSGNPQPTISLQPLPVILHVPVAVSSQPQLLQSHPGTLVTNQPSGNVEFISVQSPPTVSGLTKNPVSLPSLPNPTKPNNVPSVPSPSIQRNPTASAAPLGTTLAVQAVPTAHSIVQATRTSLPTVGPSGLYSPSTNRGPIQMKIPISAFSTSSAAEQNSNTTPRIENQTNKTIDASVSKKAADSTSQCGKATGSDSSGVIDLTMDDEESGASQDPKKLNHTPVSTMSSSQPVSRPLQPIQPAPPLQPSGVPTSGPSQTTIHLLPTAPTTVNVTHRPVTQVTTRLPVPRAPANHQVVYTTLPAPPAQAPLRGTVMQAPAVRQVNPQNSVTVRVPQTTTYVVNNGLTLGSTGPQLTVHHRPPQVHTEPPRPVHPAPLPEAPQPQRLPPEAASTSLPQKPHLKLARVQSQNGIVLSWSVLEVDRSCATVDSYHLYAYHEEPSATVPSQWKKIGEVKALPLPMACTLTQFVSGSKYYFAVRAKDIYGRFGPFCDPQSTDVISSTQSS
 |  | binds | MCAF1 (endogenous, HeLa) (protein, UniProt Q6VMQ6 1-1270) MDSLEEPQKKVFKARKTMRVSDRQQLEAVYKVKEELLKTDVKLLNGNHENGDLDPTSPLENMDYIKDKEEVNGIEEICFDPEGSKAEWKETPCILSVNVKNKQDDDLNCEPLSPHNITPEPVSKLPAEPVSGDPAPGDLDAGDPASGVLASGDSTSGDPTSSEPSSSDAASGDATSGDAPSGDVSPGDATSGDATADDLSSGDPTSSDPIPGEPVPVEPISGDCAADDIASSEITSVDLASGAPASTDPASDDLASGDLSSSELASDDLATGELASDELTSESTFDRTFEPKSVPVCEPVPEIDNIEPSSNKDDDFLEKNGADEKLEQIQSKDSLDEKNKADNNIDANEETLETDDTTICSDRPPENEKKVEEDIITELALGEDAISSSMEIDQGEKNEDETSADLVETINENVIEDNKSENILENTDSMETDEIIPILEKLAPSEDELTCFSKTSLLPIDETNPDLEEKMESSFGSPSKQESSESLPKEAFLVLSDEEDISGEKDESEVISQNETCSPAEVESNEKDNKPEEEEQVIHEDDERPSEKNEFSRRKRSKSEDMDNVQSKRRRYMEEEYEAEFQVKITAKGDINQKLQKVIQWLLEEKLCALQCAVFDKTLAELKTRVEKIECNKRHKTVLTELQAKIARLTKRFEAAKEDLKKRHEHPPNPPVSPGKTVNDVNSNNNMSYRNAGTVRQMLESKRNVSESAPPSFQTPVNTVSSTNLVTPPAVVSSQPKLQTPVTSGSLTATSVLPAPNTATVVATTQVPSGNPQPTISLQPLPVILHVPVAVSSQPQLLQSHPGTLVTNQPSGNVEFISVQSPPTVSGLTKNPVSLPSLPNPTKPNNVPSVPSPSIQRNPTASAAPLGTTLAVQAVPTAHSIVQATRTSLPTVGPSGLYSPSTNRGPIQMKIPISAFSTSSAAEQNSNTTPRIENQTNKTIDASVSKKAADSTSQCGKATGSDSSGVIDLTMDDEESGASQDPKKLNHTPVSTMSSSQPVSRPLQPIQPAPPLQPSGVPTSGPSQTTIHLLPTAPTTVNVTHRPVTQVTTRLPVPRAPANHQVVYTTLPAPPAQAPLRGTVMQAPAVRQVNPQNSVTVRVPQTTTYVVNNGLTLGSTGPQLTVHHRPPQVHTEPPRPVHPAPLPEAPQPQRLPPEAASTSLPQKPHLKLARVQSQNGIVLSWSVLEVDRSCATVDSYHLYAYHEEPSATVPSQWKKIGEVKALPLPMACTLTQFVSGSKYYFAVRAKDIYGRFGPFCDPQSTDVISSTQSS
